According to patent publication US20250042925A1, “Improved Compositions and Methods for Targeting Mitochondria in Cancer Cells” (The Medical College of Wisconsin, Inc., priority 2021, published 2025):
Some results were stated once for a whole list of compounds, not compound by compound.

Tested on: KPC1242 cells
Test: Ki-67 proliferation staining
Type: cell-based, murine
Details: 24-hour treatment; MMe 0.7 μM or pCF3-MMe 3 μM

SMILES | reduction in Ki-67 levels
N=C(N)NC(=N)NCCCCCCCCCC[P+](c1ccccc1)(c1ccccc1)c1ccccc1.[Br-] [MMe, 10-[(carbamimidamidomethanimidoyl)amino]decyl-triphenylphosphonium bromide, reference compound] | 20-30%
N=C(N)NC(=N)NCCCCCCCCCC[P+](c1ccc(C(F)(F)F)cc1)(c1ccc(C(F)(F)F)cc1)c1ccc(C(F)(F)F)cc1.[Br-] [pCF3-MMe, (10-(3-carbamimidoylguanidino)decyl)tris(4-(trifluoromethyl)phenyl)phosphonium bromide] | 20-30%
